Source: the supplement of paper PMC5949888
± gives the standard deviation of the averaged measurements. Most values lie at the floor of the assay. Slopes are relative: functional sequences can read slightly below zero.

These substances were tested on Saccharomyces cerevisiae PS128 hsf1 delta, HSF1(1-493) fusion (assay: growth estimate (transactivation domain function in HSF1 fusion, heat-shock survival) (a.u. (slope of normalised read count over time)); higher = stronger growth at 37°C, i.e. more transactivation activity). Conditions: library: random library.
For HCNLLRRTG, the growth estimate was < -0.25.
With KVIEESVLSVWVYQ the growth estimate was < -0.25.
With VYILQHRW the growth estimate was < -0.25.
For RWMD, the growth estimate was < -0.25.
GCLG was tested, and the growth estimate was < -0.25.
In the case of EKRHDGRSWFEGH, the growth estimate is reported as < -0.25.
LIFHSSWLRVYAEDHSSASV was tested, and the growth estimate was < -0.25.
HPRGRSGSGRLVRNVTSIVG was tested, and the growth estimate was < -0.25.
In the case of ATLSRRVWRVIIRLKRAIHI, the growth estimate is reported as < -0.25.
With STHYAEFCYGISHPNPGIGC the growth estimate was < -0.25.
In the case of TWSK, the growth estimate is reported as < -0.25.
In the case of IVGRGLKTGYSRGFSLERY, the growth estimate is reported as < -0.25.
For SSGWRMAEIVGGSYASEIAI, the growth estimate was < -0.25.
In the case of YAVGMPRFAHVTVSHSGKKT, the growth estimate is reported as < -0.25.
For VCKPAACIKHLGNGILIPAR, the growth estimate was < -0.25.
For QLRMEQRARMVCWVN, the growth estimate was < -0.25.
IRGGIKDYML was tested, and the growth estimate was < -0.25.
In the case of RSRGINYGCSIGSNQVKDET, the growth estimate is reported as < -0.25.
CGRK was tested, and the growth estimate was < -0.25.
With HWWLPRATRSFPRKRCAPLD the growth estimate was < -0.25.
With QVCIGFNHGLYQRCIMLEDL the growth estimate was < -0.25.
In the case of LGVGC, the growth estimate is reported as < -0.25.
With RAKGGAERWSNGKLLNLSLT the growth estimate was < -0.25.
For WSGKRVVGRLRMVKQGGRKP, the growth estimate was < -0.25.
In the case of KALCFFGIIARCASAWTRT, the growth estimate is reported as < -0.25.
In the case of GARLLQH, the growth estimate is reported as < -0.25.
For SSVLG, the growth estimate was < -0.25.
With VCRHSSSRPGF the growth estimate was < -0.25.
EQCTTFEGCWDDTQWRLFAP was tested, and the growth estimate was 0.586.
With LVCERSIFRIPTVSGQ the growth estimate was < -0.25.
For STASPRRPRKYFDFVSPSEA, the growth estimate was < -0.25.
Substance PELNDCPYKVVVSRVKDVSR has a growth estimate of -0.25.
In the case of PSKKVAKAGRCESPCRRLEY, the growth estimate is reported as < -0.25.
For INRASSKMTQETHPFYQQYW, the growth estimate was < -0.25.
In the case of VRRDN, the growth estimate is reported as < -0.25.
In the case of RCNGSFSGVVFAVR, the growth estimate is reported as < -0.25.
FLLHQESSF was tested, and the growth estimate was < -0.25.
With ETCNETGVKQPGTTRARCDG the growth estimate was < -0.25.
With GLKQRGSRSAGLSCHAFSLD the growth estimate was < -0.25.
With GGQWRCSVTWASLQHVSRYK the growth estimate was < -0.25.
With RHEEGIDPRVGLYVS the growth estimate was < -0.25.
In the case of YTDCSHWCWANYSSEEYVGP, the growth estimate is reported as 2.39.
With AVAEPSVFARFV the growth estimate was < -0.25.
In the case of GEPLV, the growth estimate is reported as < -0.25.
With SGHKKKG the growth estimate was < -0.25.
In the case of KGF, the growth estimate is reported as < -0.25.
For KARAHGVRENRRGDRLGTRF, the growth estimate was < -0.25.
In the case of ILTHQREHTNDSPSPFP, the growth estimate is reported as < -0.25.
GRSTARHSLASKLLAMVQDQ was tested, and the growth estimate was < -0.25.
In the case of FTLLHENLLTCATTLLRLQV, the growth estimate is reported as < -0.25.
For YGFRLYLVCKRCAACLSGSV, the growth estimate was < -0.25.
With PCTLRRWVNGLARRSPV the growth estimate was < -0.25.
RWD was tested, and the growth estimate was < -0.25.
YIFGVE was tested, and the growth estimate was < -0.25.
For PQHALLSKHPNS, the growth estimate was < -0.25.
Work on GFLEEVISKNSSAVIPWALL yielded a growth estimate of -0.207.
KCWRDRKGPGCPT was tested, and the growth estimate was < -0.25.
For TIRQSIRWGVFSWVM, the growth estimate was < -0.25.
RRLVSEGLVHWWCTELVLLN was tested, and the growth estimate was < -0.25.
With SVSPPGRYSQPGSAEIILHR the growth estimate was -0.25.
GGGNHCFNYTGVEHVMIHPP was tested, and the growth estimate was < -0.25.
For RALRRLGGAAPREALVS, the growth estimate was < -0.25.
With GSGGHAISWVTY the growth estimate was < -0.25.
In the case of ASGPERGLRLLWVFYASVVR, the growth estimate is reported as < -0.25.
With VPRGLSGGRRSAEGPEVEIE the growth estimate was < -0.25.
SEIVVGTNGR was tested, and the growth estimate was < -0.25.
For CGMMFACLIRPSSCIC, the growth estimate was < -0.25.
In the case of TLSHSGHYLSSIVDS, the growth estimate is reported as -0.197.
In the case of GRLSLVQTFSANQARGLRAN, the growth estimate is reported as -0.243.
In the case of LDETN, the growth estimate is reported as < -0.25.
In the case of NEISRCLVLVVRSAPHSLSN, the growth estimate is reported as < -0.25.
For SRDLSRKKGTVQPTATPGGQ, the growth estimate was < -0.25.
In the case of EKSLSTKRYELMKAGVGLIT, the growth estimate is reported as < -0.25.
With GGNIGLIEP the growth estimate was < -0.25.
QDAMAPPLLRLLPRTCRCVV was tested, and the growth estimate was < -0.25.
In the case of PFT, the growth estimate is reported as < -0.25.
GMTTIRGISQMPLPRGSINA gave a growth estimate of -0.246.
With HNDRSLSTPQMRSVTVYDLI the growth estimate was < -0.25.
With SFLVRL the growth estimate was < -0.25.
For KHIREL, the growth estimate was < -0.25.
In the case of RKGGSPYFVDTRRSYYTKRG, the growth estimate is reported as < -0.25.
LSPRVSLWSIR was tested, and the growth estimate was < -0.25.
With LDQ the growth estimate was < -0.25.
IVIPRAFQGYFPTTRALFMG was tested, and the growth estimate was < -0.25.
Work on PEGYVPPRLGFNFT yielded a growth estimate of -0.246.
With SNIALSYKSLPEQRTTDGPG the growth estimate was < -0.25.
SVD was tested, and the growth estimate was < -0.25.
WTLLFYTYSHRREQVLYGDV was tested, and the growth estimate was < -0.25.
For GEF, the growth estimate was < -0.25.
For RAALVYRKD, the growth estimate was < -0.25.
LDRAATFPMRGSFLVKLSFG was tested, and the growth estimate was < -0.25.
With RSLVVYRRRTGIGLTLIKSI the growth estimate was < -0.25.
For FGGTCFRTRPYYQAILTVNS, the growth estimate was < -0.25.
TRTALHNPVSGGILVFSCSG was tested, and the growth estimate was < -0.25.
RSSCSSERGVQSLGYHWFAF was tested, and the growth estimate was < -0.25.
RWEHGGISSPKSDFLELGGP was tested, and the growth estimate was < -0.25.
YQYRYR was tested, and the growth estimate was -0.245.
GSLC was tested, and the growth estimate was < -0.25.
With PPTVNSSLREISGRDFCTGV the growth estimate was < -0.25.
In the case of SFLLVASSLRLTGIFLCPVP, the growth estimate is reported as < -0.25.
For NNPSAPQGSGMAATVGTYSS, the growth estimate was < -0.25.
In the case of VWRICG, the growth estimate is reported as < -0.25.
With AKVSAACVSLSVNCHATTPG the growth estimate was < -0.25.
Substance TTRA has a growth estimate of 0.066.
With IIQRMDCVITLTVMYNGATC the growth estimate was < -0.25.
VGAGASGMYQP was tested, and the growth estimate was < -0.25.
For LTTGAIHVVDIPEDRVLCDG, the growth estimate was < -0.25.
NERGRGSWFTLGVDMNLASE was tested, and the growth estimate was < -0.25.
AGVESTYTMMQCTGDYVRDA was tested, and the growth estimate was < -0.25.
For RHVASTRVWGNIHCGEDRIE, the growth estimate was -0.229.
In the case of PNAIKTGLSVLMLDKPRDGT, the growth estimate is reported as < -0.25.
In the case of FQPIPGGQLCRVERPDQTSL, the growth estimate is reported as < -0.25.
With TATVRCSREV the growth estimate was < -0.25.
With LYDGRVCESHLGSHGSIFFT the growth estimate was < -0.25.
With SFNRSMH the growth estimate was < -0.25.
For ANPGKYTDRFKRA, the growth estimate was < -0.25.
With VGSGHSSVSRRSPHIRPTLA the growth estimate was < -0.25.
In the case of HWNSTNISIITTIWGDNGCY, the growth estimate is reported as < -0.25.
AWHVRILTAKSNPNFNSLEY was tested, and the growth estimate was < -0.25.
For RRLGSEMTFFPMSRLCHPKR, the growth estimate was < -0.25.
CDH was tested, and the growth estimate was < -0.25.
For GHRWYRPER, the growth estimate was < -0.25.
In the case of LTDITPFRAWPNSVEKAVLA, the growth estimate is reported as < -0.25.
For SPQSARIDVRAITLGDIVGR, the growth estimate was < -0.25.
For IKYAAILLRL, the growth estimate was < -0.25.
In the case of RQLGSNIDRGRTRDKRACGW, the growth estimate is reported as < -0.25.
With HCSLEGFGARFLGKCWCSAV the growth estimate was < -0.25.
RHQNMEFGRMESSQGGSLGG was tested, and the growth estimate was < -0.25.
For LTTWGKRKDHSSNALHTLIQ, the growth estimate was < -0.25.
In the case of LLSIARTVRM, the growth estimate is reported as < -0.25.
For PLFNRTPIVGSSIICS, the growth estimate was < -0.25.
GLAYRAHLRSSDSRKYLKRL was tested, and the growth estimate was < -0.25.
In the case of GGIGVQDQQKARLSNCLLNG, the growth estimate is reported as < -0.25.
TCCSPRHANPGGTLSHRWFI was tested, and the growth estimate was < -0.25.
With DPRQQVTLYRRSDRTGIGVR the growth estimate was < -0.25.
With EVH the growth estimate was < -0.25.
For RQTAI, the growth estimate was < -0.25.
In the case of SGSISLGLNCMWLKSIRVSS, the growth estimate is reported as < -0.25.
With LRTFESPPTRATLPRGLLAS the growth estimate was < -0.25.
In the case of VGIMS, the growth estimate is reported as < -0.25.
KFNEFDVSDNVYVNLAPCQA showed a growth estimate of -0.248.
For VRGEWNGVEG, the growth estimate was < -0.25.
With NLS the growth estimate was -0.238 ± 0.017.
